# Some of the results follow.
# Sequences of proteins named here, by UniProt entry; tags and fusion partners are left off.
# UniProt Q0JBA9, entry or part of it: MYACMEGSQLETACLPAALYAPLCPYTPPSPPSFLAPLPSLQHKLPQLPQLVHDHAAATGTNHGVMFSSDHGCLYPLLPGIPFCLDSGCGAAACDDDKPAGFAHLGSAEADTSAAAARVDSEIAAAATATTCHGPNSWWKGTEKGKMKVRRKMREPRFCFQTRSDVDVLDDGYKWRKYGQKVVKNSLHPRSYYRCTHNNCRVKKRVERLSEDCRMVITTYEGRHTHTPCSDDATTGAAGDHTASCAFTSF
# Molecular target: OsWRKY34 (Oryza sativa, UniProt Q0JBA9 1-250)
# Test: protein-binding microarray (RPBM); PBS, 2% BSA, 51.3 ng/ul salmon testes DNA, 50 uM zinc acetate, 200 nM TF, 25 C, 1 h; high values mean tight binding
# Conditions: protein: recombinant; tags: N-terminal polyhistidine and DsRed monomer fusion (pET32a); label: CyDye5-dUTP incorporated in the synthesized complementary strand; 3' TTTTT single-stranded linker to array surface; dsDNA, one strand shown
# How it was run: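 Transcription factors were each fused at the N-terminus to a polyhistidine tag plus DsRed and expressed in E. coli BL21-CodonPlus before Ni–NTA purification. Binding to a double-stranded custom Agilent array was carried out with 200 nM protein at 25 °C for 1 h in PBS, 2% BSA, salmon testes DNA and 50 µM zinc acetate. The binding signal is per-feature fluorescence intensity, in arbitrary units, on an Axon 4000B scanner.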
row,Sequence,binding signal
1,CCCGTTCTGTTCTTGCAAGCGTGAAGCCATTTCCCATTTTCGGAGTCACCTAGTGCAG,9030 fluorescence intensity (a.u.)
2,TTATCTGCCCTTTGTTTGTCCGGTTTTGTTCATGTCCTTACGGAGTCACCTAGTGCAG,11100 fluorescence intensity (a.u.)
3,GCAGCCTTTCTGAAAATATTTGCCACCTTTCACTTGTTCTCGGAGTCACCTAGTGCAG,11200 fluorescence intensity (a.u.)
4,AGCCAAAAGGCAGCTGGCCACGTCTAATCTGGTTTCCATCCGGAGTCACCTAGTGCAG,8920 fluorescence intensity (a.u.)
5,GATTCGTTATAGGCCCATCGATCTTACTAATAAAATGATTCGGAGTCACCTAGTGCAG,9550 fluorescence intensity (a.u.)
6,GGGTCTTTTTTTGCTTCGGTTGGTCTTGCCTCTCGCTTAGCGGAGTCACCTAGTGCAG,11200 fluorescence intensity (a.u.)
7,GGTAAACATTCTCCGTTCAGTTATTAATATTTGATGTTTACGGAGTCACCTAGTGCAG,8910 fluorescence intensity (a.u.)
8,CTCCTCGTCGGTGTCCTCCTCCTCCGCCGCCGCCTCCGCGCGGAGTCACCTAGTGCAG,9260 fluorescence intensity (a.u.)
9,TCGTCATCCTGCATCGTCGATTCCCCACGCCTCGATCTCCCGGAGTCACCTAGTGCAG,9750 fluorescence intensity (a.u.)
10,ACGGCCGTGTGTGTGTTCTTGGCGTGTTGGTGTGCGTGGACGGAGTCACCTAGTGCAG,9040 fluorescence intensity (a.u.)
11,GGAGGTGGGGATGGTGGGGATTGTTGCAGCCTCGCAGTAACGGAGTCACCTAGTGCAG,12400 fluorescence intensity (a.u.)
12,CCAATGCCGTCGCCACCCACATCACCACCCGGCGCACTCACGGAGTCACCTAGTGCAG,8730 fluorescence intensity (a.u.)
13,ACCACCATTCACCAATCACCACCAGTGACCGCGCCGACCACGGAGTCACCTAGTGCAG,10800 fluorescence intensity (a.u.)
14,TTAGCAATTTCGGCAAAATAGACCAAGCACACGTTTTCTTCGGAGTCACCTAGTGCAG,8170 fluorescence intensity (a.u.)
15,GTAGGAGGAGGAGGAGGAGGTGGTGGTGGTGGTGGTGATGCGGAGTCACCTAGTGCAG,15100 fluorescence intensity (a.u.)
16,GTTGTGACCACGAGCTGTTCTCTCTCCCATTCCTCATTTCCGGAGTCACCTAGTGCAG,13400 fluorescence intensity (a.u.)
17,CCGGTGTCATCAATCCAGGCGTCGGGGAGGTCGGGGTCAGCGGAGTCACCTAGTGCAG,9490 fluorescence intensity (a.u.)
18,TTAGTCTATGTTTAATACTTCTAATTAGTGTCCAAACATTCGGAGTCACCTAGTGCAG,8500 fluorescence intensity (a.u.)
19,AGCAGTTTATTTGTTTCCTGAACATGATTGGGGATTAGACCGGAGTCACCTAGTGCAG,9580 fluorescence intensity (a.u.)
20,TTGTCTTTTTTGGTGCTCTATCTGTATCAAGTTTGTTATGCGGAGTCACCTAGTGCAG,8090 fluorescence intensity (a.u.)
21,TAGAATTACATCTGATATACCGGTCTTACGCTCTTAGATTCGGAGTCACCTAGTGCAG,8860 fluorescence intensity (a.u.)

row,Sequence,binding signal
1,GCTTATGTGTTCTGGAGCGACCAGGTTCAATGAACCTTCTCGGAGTCACCTAGTGCAG,8650 fluorescence intensity (a.u.)
2,TTCTCACGATTTTTTTCCCCTGTAAATTTCCCGGCGGCTTCGGAGTCACCTAGTGCAG,9500 fluorescence intensity (a.u.)
3,CAGCCCGATCCAATCCGTCTCTGGTCTCTCCGGTACAAAACGGAGTCACCTAGTGCAG,8050 fluorescence intensity (a.u.)
4,CCATAATGATTTTACTGTTACTGGGATGGCAATATCTTTCCGGAGTCACCTAGTGCAG,9820 fluorescence intensity (a.u.)
5,CCTTTACCTTTTGTTTGTTTTAACATCTCCTAAATTTTACCGGAGTCACCTAGTGCAG,10800 fluorescence intensity (a.u.)
6,AAGCTATGCTTCAAGACCATTCATTAGTTTCTTCTTCTTCCGGAGTCACCTAGTGCAG,9820 fluorescence intensity (a.u.)
7,GACCTCTTGTGAAACTTTCCTTTGTTGAGGGTATCATGTGCGGAGTCACCTAGTGCAG,10800 fluorescence intensity (a.u.)
8,ACACCATCGCCGCTCGGTCCGCCCCGCTGCCTGATGCCATCGGAGTCACCTAGTGCAG,9150 fluorescence intensity (a.u.)
9,CCTACCGCAACTTGGCCCGGACAGGCACGCACACGCACATCGGAGTCACCTAGTGCAG,10400 fluorescence intensity (a.u.)
10,TCACAGTTGCTGTCACATGAATACTTTTAACTTTTCTTGCCGGAGTCACCTAGTGCAG,8780 fluorescence intensity (a.u.)
11,TAATTAACCCTATCCCCATCCCAATCCCCACCTCTCCATCCGGAGTCACCTAGTGCAG,8150 fluorescence intensity (a.u.)
12,AATTTGACTCCCTCAGCAGTTTTGGAGGACGGTTTCACGGCGGAGTCACCTAGTGCAG,8700 fluorescence intensity (a.u.)
13,GGATTCTTCGTCTCCACCACCGCCCTCGACGTCAGATCAGCGGAGTCACCTAGTGCAG,9660 fluorescence intensity (a.u.)
14,AACTCGTACTCGGTTTGTAGCCCATCTCCGACTCGGATTACGGAGTCACCTAGTGCAG,9930 fluorescence intensity (a.u.)
15,CGTGTCTCGGCCACAGCCAGTCGTTTACCGCACGTTCACACGGAGTCACCTAGTGCAG,11100 fluorescence intensity (a.u.)
16,CGGGCGGGTCAAGGTCTCCTCCTCTCTCGTCGGCGACCTCCGGAGTCACCTAGTGCAG,10900 fluorescence intensity (a.u.)
17,TGAGCCTCTCGTGGCCCTTTTTCTTTTCTTTTTTAAAATTCGGAGTCACCTAGTGCAG,10000 fluorescence intensity (a.u.)
18,GACTGACATTAGGCCCCACATCTCCTCCGGCCCCACACGTCGGAGTCACCTAGTGCAG,10400 fluorescence intensity (a.u.)
19,CCATTAACCAACCTCGCGTCATCTCTCCCATCTCCCATATCGGAGTCACCTAGTGCAG,8450 fluorescence intensity (a.u.)
20,CACCCACACACCGACATCGCCAACACACAAGCCCAGGAAACGGAGTCACCTAGTGCAG,8920 fluorescence intensity (a.u.)
21,TGTCAGCCTCGTCCGGCTTCATCCCGTTGCGTCCCATTTTCGGAGTCACCTAGTGCAG,17600 fluorescence intensity (a.u.)

# Taken from above.
# TTCTCACGATTTTTTTCCCCTGTAAATTTCCCGGCGGCTTCGGAGTCACCTAGTGCAG – binding signal: 9500 fluorescence intensity (a.u.)
# CCTTTACCTTTTGTTTGTTTTAACATCTCCTAAATTTTACCGGAGTCACCTAGTGCAG – binding signal: 10800 fluorescence intensity (a.u.)

# — paper PMC7819943, “Rice protein-binding microarrays: a tool to detect cis-acting elements near promoter regions in rice”
